We go through 29 targets from the supplement of paper PMC12819154, “High-throughput peptide-centric local stability assay extends protein–ligand identification to membrane proteins, tissues and bacteria” (Nature Structural & Molecular Biology, 2025).

By UniProt entry, the sequences of proteins in these tests, tags left out. Where a name states a change or a piece, a line headed by the entry shows the natural chain unless it says otherwise.
UniProt Q8IYT8: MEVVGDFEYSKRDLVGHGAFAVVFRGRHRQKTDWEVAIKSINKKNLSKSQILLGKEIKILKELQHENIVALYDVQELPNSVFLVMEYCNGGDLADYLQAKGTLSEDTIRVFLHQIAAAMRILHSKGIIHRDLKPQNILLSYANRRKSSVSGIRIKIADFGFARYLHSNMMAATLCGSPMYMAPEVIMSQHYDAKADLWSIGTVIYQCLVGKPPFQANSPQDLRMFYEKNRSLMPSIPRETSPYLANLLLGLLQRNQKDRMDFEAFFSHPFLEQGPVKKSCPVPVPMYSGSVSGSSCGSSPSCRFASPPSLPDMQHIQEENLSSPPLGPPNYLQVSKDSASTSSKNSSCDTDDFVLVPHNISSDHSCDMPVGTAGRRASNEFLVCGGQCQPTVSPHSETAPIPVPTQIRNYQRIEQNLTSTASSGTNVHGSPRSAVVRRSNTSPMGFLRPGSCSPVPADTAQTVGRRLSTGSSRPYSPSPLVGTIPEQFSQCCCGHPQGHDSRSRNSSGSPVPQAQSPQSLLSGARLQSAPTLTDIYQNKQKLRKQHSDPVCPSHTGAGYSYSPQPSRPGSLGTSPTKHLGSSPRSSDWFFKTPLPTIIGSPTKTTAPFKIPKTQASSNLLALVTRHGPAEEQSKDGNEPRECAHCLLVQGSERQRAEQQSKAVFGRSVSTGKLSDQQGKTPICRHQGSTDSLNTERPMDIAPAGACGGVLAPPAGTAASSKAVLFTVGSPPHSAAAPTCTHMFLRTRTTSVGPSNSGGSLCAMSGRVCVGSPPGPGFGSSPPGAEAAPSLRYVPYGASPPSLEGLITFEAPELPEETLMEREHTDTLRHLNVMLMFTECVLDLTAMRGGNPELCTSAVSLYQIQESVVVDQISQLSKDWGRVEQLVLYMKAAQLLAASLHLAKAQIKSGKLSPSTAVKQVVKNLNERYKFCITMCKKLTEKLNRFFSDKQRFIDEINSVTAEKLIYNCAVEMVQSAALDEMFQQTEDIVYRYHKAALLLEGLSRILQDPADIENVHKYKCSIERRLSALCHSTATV
UniProt Q86YP4: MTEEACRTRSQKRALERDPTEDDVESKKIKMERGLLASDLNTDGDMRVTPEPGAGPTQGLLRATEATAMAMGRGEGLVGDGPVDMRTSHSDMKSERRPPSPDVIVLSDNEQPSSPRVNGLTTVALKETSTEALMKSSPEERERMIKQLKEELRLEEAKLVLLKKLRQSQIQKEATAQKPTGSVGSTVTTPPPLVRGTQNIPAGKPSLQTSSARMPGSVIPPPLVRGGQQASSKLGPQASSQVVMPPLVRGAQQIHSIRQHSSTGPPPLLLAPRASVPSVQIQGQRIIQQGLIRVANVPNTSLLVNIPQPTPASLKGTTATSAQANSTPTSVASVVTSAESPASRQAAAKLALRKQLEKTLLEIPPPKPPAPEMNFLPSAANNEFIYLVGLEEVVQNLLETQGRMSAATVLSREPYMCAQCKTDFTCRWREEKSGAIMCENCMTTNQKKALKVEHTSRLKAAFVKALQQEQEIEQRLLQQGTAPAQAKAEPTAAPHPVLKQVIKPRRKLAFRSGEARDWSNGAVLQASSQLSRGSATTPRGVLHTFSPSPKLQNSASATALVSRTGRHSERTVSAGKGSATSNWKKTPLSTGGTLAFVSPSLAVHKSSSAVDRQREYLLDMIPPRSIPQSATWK
UniProt Q8IUC6, whole entry: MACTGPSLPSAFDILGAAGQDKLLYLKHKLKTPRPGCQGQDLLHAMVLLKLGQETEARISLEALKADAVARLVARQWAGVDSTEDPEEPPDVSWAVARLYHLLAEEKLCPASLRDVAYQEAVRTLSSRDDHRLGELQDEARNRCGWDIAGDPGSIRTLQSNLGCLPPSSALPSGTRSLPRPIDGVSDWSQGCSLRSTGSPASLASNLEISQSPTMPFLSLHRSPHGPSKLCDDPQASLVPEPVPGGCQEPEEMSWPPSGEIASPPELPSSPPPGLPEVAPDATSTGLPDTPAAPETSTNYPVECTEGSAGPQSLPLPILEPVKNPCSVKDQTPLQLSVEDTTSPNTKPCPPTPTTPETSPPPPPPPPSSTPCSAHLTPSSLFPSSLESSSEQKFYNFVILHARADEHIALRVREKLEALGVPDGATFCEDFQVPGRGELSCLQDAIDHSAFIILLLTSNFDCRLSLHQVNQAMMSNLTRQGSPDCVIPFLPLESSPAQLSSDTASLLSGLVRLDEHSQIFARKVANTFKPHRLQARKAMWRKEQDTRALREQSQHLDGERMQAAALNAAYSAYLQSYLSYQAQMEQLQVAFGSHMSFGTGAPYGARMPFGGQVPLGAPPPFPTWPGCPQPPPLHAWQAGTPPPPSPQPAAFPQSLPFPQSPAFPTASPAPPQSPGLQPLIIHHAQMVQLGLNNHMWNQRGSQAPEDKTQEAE
UniProt Q86W42: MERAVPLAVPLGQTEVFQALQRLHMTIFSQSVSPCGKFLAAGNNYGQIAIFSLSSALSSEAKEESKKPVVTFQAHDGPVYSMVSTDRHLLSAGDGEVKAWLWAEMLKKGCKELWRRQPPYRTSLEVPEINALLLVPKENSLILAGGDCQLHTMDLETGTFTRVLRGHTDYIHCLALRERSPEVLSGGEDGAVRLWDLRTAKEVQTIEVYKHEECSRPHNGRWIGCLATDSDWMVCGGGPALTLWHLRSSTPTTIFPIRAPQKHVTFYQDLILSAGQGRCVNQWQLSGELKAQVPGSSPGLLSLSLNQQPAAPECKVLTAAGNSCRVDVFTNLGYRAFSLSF
UniProt Q86X95: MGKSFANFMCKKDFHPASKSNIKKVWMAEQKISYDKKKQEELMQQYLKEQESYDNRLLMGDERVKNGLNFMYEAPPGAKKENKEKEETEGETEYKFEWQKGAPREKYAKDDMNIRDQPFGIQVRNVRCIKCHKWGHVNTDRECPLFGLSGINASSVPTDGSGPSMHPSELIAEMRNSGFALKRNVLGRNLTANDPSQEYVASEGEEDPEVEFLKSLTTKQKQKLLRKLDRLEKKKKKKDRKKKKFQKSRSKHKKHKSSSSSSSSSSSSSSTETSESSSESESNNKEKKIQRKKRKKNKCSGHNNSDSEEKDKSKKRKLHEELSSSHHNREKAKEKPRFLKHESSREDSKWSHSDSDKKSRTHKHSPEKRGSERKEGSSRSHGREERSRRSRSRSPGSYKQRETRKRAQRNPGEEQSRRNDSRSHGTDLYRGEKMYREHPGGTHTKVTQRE
UniProt Q8IWZ6: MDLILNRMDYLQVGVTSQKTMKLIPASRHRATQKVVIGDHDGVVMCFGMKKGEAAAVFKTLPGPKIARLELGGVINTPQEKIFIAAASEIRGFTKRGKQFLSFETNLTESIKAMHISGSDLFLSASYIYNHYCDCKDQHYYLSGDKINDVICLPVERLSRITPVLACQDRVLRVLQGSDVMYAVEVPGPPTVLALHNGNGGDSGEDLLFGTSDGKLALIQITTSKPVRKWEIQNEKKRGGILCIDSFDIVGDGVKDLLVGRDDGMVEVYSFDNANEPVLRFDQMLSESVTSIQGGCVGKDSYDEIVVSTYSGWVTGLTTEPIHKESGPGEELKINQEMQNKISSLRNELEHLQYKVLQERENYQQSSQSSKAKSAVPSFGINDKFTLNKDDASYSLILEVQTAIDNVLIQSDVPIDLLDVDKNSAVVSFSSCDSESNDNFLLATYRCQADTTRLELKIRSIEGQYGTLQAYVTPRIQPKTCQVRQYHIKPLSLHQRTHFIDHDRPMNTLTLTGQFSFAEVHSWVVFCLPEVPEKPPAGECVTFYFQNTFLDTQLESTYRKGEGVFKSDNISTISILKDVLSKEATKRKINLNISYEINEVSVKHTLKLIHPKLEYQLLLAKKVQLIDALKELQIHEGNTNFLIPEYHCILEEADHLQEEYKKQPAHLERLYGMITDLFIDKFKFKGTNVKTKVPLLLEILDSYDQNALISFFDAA
UniProt Q86VX9: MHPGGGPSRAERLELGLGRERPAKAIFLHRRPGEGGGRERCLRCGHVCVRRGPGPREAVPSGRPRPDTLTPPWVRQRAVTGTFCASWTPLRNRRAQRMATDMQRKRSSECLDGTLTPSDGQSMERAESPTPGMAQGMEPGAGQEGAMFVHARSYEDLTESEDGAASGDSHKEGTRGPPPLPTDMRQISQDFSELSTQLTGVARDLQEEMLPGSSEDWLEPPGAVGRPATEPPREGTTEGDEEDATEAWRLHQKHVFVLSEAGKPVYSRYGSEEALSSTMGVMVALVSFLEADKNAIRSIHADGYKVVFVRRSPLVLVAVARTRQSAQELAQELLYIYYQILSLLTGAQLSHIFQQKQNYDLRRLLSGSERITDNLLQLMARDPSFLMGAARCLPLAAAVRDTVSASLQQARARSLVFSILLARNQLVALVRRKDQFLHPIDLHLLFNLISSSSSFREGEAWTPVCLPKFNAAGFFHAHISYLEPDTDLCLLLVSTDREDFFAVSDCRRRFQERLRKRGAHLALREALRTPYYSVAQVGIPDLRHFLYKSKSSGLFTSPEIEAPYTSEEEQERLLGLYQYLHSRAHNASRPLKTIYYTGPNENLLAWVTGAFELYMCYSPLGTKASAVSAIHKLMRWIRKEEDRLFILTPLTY
UniProt Q86WT1: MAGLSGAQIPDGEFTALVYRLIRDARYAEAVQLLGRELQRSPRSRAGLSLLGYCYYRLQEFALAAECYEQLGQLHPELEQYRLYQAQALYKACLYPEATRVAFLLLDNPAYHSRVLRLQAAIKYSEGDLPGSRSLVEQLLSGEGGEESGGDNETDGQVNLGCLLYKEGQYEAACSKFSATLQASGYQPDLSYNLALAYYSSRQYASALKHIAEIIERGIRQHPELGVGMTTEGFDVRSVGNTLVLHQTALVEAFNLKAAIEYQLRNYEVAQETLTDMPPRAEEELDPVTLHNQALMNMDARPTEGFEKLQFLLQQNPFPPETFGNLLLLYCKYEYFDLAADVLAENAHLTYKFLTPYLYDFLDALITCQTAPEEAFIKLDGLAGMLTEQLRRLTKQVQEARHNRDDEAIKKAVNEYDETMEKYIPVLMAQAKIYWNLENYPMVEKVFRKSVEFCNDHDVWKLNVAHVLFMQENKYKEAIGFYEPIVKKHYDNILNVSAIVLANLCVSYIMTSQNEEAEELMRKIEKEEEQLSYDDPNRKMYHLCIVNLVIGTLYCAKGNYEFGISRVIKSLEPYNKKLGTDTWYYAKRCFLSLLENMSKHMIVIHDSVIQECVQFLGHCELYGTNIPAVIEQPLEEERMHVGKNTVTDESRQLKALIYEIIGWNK
UniProt Q86XP3: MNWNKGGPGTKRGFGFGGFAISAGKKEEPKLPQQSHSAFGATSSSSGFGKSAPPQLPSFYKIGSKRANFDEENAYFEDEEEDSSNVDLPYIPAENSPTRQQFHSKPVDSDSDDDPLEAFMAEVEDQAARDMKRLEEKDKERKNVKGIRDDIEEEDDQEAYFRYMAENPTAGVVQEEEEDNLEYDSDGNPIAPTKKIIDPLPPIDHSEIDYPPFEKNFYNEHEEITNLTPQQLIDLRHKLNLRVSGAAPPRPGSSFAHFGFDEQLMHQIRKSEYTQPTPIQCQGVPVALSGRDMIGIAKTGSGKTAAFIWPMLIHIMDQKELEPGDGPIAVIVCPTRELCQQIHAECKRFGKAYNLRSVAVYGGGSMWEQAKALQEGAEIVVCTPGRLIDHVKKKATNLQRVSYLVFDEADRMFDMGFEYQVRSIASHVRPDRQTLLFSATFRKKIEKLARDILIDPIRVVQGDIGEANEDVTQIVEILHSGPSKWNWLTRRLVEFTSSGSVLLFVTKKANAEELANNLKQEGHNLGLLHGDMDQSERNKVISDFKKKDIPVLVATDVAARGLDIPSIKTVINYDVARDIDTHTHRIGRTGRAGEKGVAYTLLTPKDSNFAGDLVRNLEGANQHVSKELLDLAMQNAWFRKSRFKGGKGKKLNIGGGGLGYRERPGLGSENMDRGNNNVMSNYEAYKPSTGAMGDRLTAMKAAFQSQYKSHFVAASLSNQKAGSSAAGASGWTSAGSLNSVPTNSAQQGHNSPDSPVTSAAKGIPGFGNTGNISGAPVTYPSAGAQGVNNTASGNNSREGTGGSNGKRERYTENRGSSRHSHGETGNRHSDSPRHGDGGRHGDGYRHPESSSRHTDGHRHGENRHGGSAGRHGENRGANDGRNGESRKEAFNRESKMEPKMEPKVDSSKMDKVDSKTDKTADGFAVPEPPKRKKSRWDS
UniProt Q8IXX5: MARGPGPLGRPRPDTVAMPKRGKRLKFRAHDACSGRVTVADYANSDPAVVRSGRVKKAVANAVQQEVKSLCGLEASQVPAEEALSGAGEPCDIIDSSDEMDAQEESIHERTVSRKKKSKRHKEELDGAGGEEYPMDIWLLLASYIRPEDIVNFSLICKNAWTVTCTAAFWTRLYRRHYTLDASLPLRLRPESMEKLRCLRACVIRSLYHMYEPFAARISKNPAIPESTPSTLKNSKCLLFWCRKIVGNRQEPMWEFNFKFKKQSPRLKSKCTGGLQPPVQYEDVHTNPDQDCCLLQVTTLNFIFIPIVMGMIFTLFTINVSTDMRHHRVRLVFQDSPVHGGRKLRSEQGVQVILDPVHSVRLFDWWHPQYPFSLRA

Some of the results follow. Most entries show no effect beyond the scatter of the controls.

Compound in the assay: Cc1nc(Nc2ncc(C(=O)Nc3c(C)cccc3Cl)s2)cc(N2CCN(CCO)CC2)n1 [dasatinib]
Description: log2 fold change of tryptic peptide abundance, ligand vs vehicle (limited proteolysis) (log2 ratio); higher = more trypsin-susceptible (destabilized). The conditions noted are these: ligand concentration: 5 uM; sample: K562 cleared lysate.
Regarding “PALB2 (peptide sequence: TDDTQEHFPHR, peptide start residue: 121) (UniProt Q86YC2)”, the log2 fold change was 0.3. Consider “NT5DC3 (peptide sequence: YICYAEQTR, peptide start residue: 274) (UniProt Q86UY8)”, for which the log2 fold change came to 0.116. To “UniProt Q86XN6 (peptide sequence: IHTEDNAYK, peptide start residue: 431)” belongs 0.346. To “UniProt Q8IYK4 (peptide sequence: TLYEQEIEVK, peptide start residue: 362)” belongs 0.218; to “PARG (peptide sequence: DNFYQHNVEK, peptide start residue: 116) (UniProt Q86W56)”, 0.144; to “RNF168 (peptide sequence: GSPDEYHLR, peptide start residue: 469) (UniProt Q8IYW5)”, 0.175.

Consider “ULK2 (peptide sequence: IADFGFAR, peptide start residue: 163) (UniProt Q8IYT8)”, for which the log2 fold change is -0.0176. To “C1orf174 (peptide sequence: CDKGHLVK, peptide start residue: 61) (UniProt Q8IYL3)” belongs -0.806.

For the target “GATAD2A (peptide sequence: GTQNIPAGKPSLQTSSAR, peptide start residue: 196) (UniProt Q86YP4)”, the log2 fold change worked out at 0.0938. In the case of “TICAM1 (peptide sequence: ADEHIALR, peptide start residue: 404) (UniProt Q8IUC6)”, the log2 fold change was -0.287.

Turning to “THOC6 (peptide sequence: SSTPTTIFPIR, peptide start residue: 248) (UniProt Q86W42)”, the log2 fold change came out at 0.298. Turning to “KIAA0319L (peptide sequence: LLHGQNGSVPNGQTPLK, peptide start residue: 1024) (UniProt Q8IZA0)”, the log2 fold change was 0.432. Then “HPS6 (peptide sequence: GAQLTPEELR, peptide start residue: 418) (UniProt Q86YV9)”, with 0.0594.

Regarding “UniProt Q86X95 (peptide sequence: SHGTDLYR, peptide start residue: 423)”, the log2 fold change was determined as 0.196. Then “ADGRG2 (peptide sequence: RYLCCGKLR, peptide start residue: 892) (UniProt Q8IZP9)”, with 0.132; and “BBS7 (peptide sequence: LALIQITTSKPVR, peptide start residue: 216) (UniProt Q8IWZ6)”, with 0.856; and “DGKH (peptide sequence: EMEDWISSLK, peptide start residue: 145) (UniProt Q86XP1)”, with -0.297.

“ZDHHC14 (peptide sequence: TMHVLGLASQDSLHEDSVR, peptide start residue: 462) (UniProt Q8IZN3)”: the log2 fold change was determined as 0.353. Then “MIER1 (peptide sequence: AYGKDFHLIQANKVR, peptide start residue: 302) (UniProt Q8N108)”, with 0.628; and “DHX37 (peptide sequence: ADCHEALLAAWKK, peptide start residue: 1114) (UniProt Q8IY37)”, with 0.524; and “FCHSD1 (peptide sequence: VKPAQEVK, peptide start residue: 8) (UniProt Q86WN1)”, with 0.361.

For “UniProt Q8IZX4 (peptide sequence: NIENMLQNK, peptide start residue: 1103)”, the log2 fold change is -0.513. Take “MON1A (peptide sequence: HVFVLSEAGKPVYSR, peptide start residue: 254) (UniProt Q86VX9)”: the log2 fold change came to 0.338.

For the target “UniProt Q86WT1 (peptide sequence: VAFLLLDNPAYHSR, peptide start residue: 101)”, the log2 fold change is -0.277. To “CNTROB (peptide sequence: SGHPAPSSMR, peptide start residue: 887) (UniProt Q8N137)” belongs -0.186; to “UniProt Q8IUF8 (peptide sequence: QIWNSPAISVK, peptide start residue: 429)”, 0.461.

On to “DDX42 (peptide sequence: VSYLVFDEADR, peptide start residue: 401) (UniProt Q86XP3)”, for which the log2 fold change was -0.192. To “UniProt Q8IYN6 (peptide sequence: AMAAMDGQR, peptide start residue: 156)” belongs 0.0371.

Turning to “UniProt Q8IXX5 (peptide sequence: SLYHMYEPFAAR, peptide start residue: 206)”, the log2 fold change stood at 0.297.
